Data source: PubChem BioAssay AID602196 (INSERM, 2012)
Aim: 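Knock-downs that protect lung cancer cells from cisplatin or sensitise them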. System: human A549 lung cancer cells. Reagents: siRNA pair against human genes. Time to read-out: 48 h transfection before cisplatin; time from cisplatin to read-out not stated. Conditions: cisplatin at a dose killing half of control-siRNA cells; exact dose and duration not given. Read-out: 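Cisplatin cell death as a shift from the 50% death seen with control siRNA; siRNAs toxic or growth-blocking alone scored 0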. Direction: two-siRNA summed score (-2 to +2): higher = both siRNAs protect from cisplatin killing; -2 means both sensitise. Rule for the call: 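Each siRNA scores 0 if harmful alone by LDH or WST-1, otherwise +1 if it reduces and -1 if it increases cisplatin killing; a gene is active when both siRNAs agree (sum +2 or -2)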. Calls: active = both siRNAs shift cisplatin killing the same way; inactive = no consistent shift, or siRNA harmful alone.
Shown is an unselected part of about 23,000 deposited reagents. Over the whole deposit, 455 (2%) were called active. 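Active includes both protection and sensitisation; some change values fall well beyond the stated -50 to +50 range.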 Further read-outs or replicates are left out here. Not given: the amount of reagent.

For MAGEB6 the deposit lists two-siRNA summed score (-2 to +2) = 0; inactive. Knock-down of LOC441624 resulted in: two-siRNA summed score (-2 to +2) = 0; inactive. FOXRED1 showed two-siRNA summed score (-2 to +2) = -1; inactive. CPB2 gave two-siRNA summed score (-2 to +2) = 1; inactive. Against S100A8, the entry reads two-siRNA summed score (-2 to +2) = 1; inactive. Knock-down of SMPD3 gave: two-siRNA summed score (-2 to +2) = 0; inactive.

Depletion of YIPF2 gave: two-siRNA summed score (-2 to +2) = 0; inactive. For CENPVL3 the deposit lists two-siRNA summed score (-2 to +2) = 0; inactive. DNTTIP1 showed two-siRNA summed score (-2 to +2) = 1; inactive. Against PFDN6 the deposit lists two-siRNA summed score (-2 to +2) = 0; inactive. For ZNF578 the deposit lists two-siRNA summed score (-2 to +2) = 0; inactive. Knock-down of P4HB resulted in: two-siRNA summed score (-2 to +2) = 0; inactive.

With knock-down of ZDHHC2, the record shows two-siRNA summed score (-2 to +2) = 0; inactive. With knock-down of LOC441376, the record shows two-siRNA summed score (-2 to +2) = 0; inactive. UPK2 showed two-siRNA summed score (-2 to +2) = 1; inactive. Against APOM, the values are two-siRNA summed score (-2 to +2) = 0; inactive. For TMEM81 the deposit lists two-siRNA summed score (-2 to +2) = 0; inactive. After knock-down of FRS2, the record shows two-siRNA summed score (-2 to +2) = -1; inactive.

TESMIN showed two-siRNA summed score (-2 to +2) = 0; inactive. Silencing of GIMAP4 gave: two-siRNA summed score (-2 to +2) = 0; inactive. Silencing of RPS6KA3 came out at: two-siRNA summed score (-2 to +2) = 1; inactive.
